# Source: PubChem BioAssay AID1469 (National Center for Advancing Translational Sciences (NCATS), 2008)
# Protein sequences, listed by entry. Tags and fused reporters are not part of them. Lines headed by an entry give the natural chain unless they say otherwise; changes in a name come on top.
# UniProt P10828: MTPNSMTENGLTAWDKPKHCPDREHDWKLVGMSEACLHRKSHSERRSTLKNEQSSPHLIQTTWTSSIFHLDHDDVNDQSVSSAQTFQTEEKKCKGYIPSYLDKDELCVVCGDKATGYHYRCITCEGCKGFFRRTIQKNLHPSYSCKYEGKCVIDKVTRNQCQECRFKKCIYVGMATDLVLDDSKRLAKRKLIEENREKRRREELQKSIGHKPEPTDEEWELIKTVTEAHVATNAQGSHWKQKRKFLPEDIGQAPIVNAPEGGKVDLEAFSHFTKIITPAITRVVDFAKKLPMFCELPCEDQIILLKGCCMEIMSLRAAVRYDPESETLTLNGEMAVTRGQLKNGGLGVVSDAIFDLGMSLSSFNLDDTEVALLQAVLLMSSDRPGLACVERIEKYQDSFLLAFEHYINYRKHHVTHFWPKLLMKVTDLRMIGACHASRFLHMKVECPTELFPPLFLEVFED
# About 180 (0.064%) of roughly 280,000 compounds were called active. The shares of active, inactive and inconclusive entries below differ from those in the screen. Calls follow the shape of the dose curve; as a rule, active = well fitted inhibition curve with a large enough effect; inconclusive = small, poorly fitted or top-dose-only effect, or effect the other way; inactive = flat fitted curve, though single readings scatter. Potencies beside an inconclusive call are fits to weak or partial responses and may not hold up.
# Molecular target: Thyroid hormone receptor beta (Homo sapiens) (UniProt P10828)
# Assay: qHTS for Inhibitors of the Interaction of Thyroid Hormone Receptor and Steroid Receptor Coregulator 2; also: nearly all actives have a fitted effect of over 50% in size;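 as to activity change, negative = inhibition: plate controls were bound peptide for no effect and peptide without receptor for full effect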
# Conditions: TRbeta-SRC2 peptide binding, fluorescence polarization, receptor liganded with 1 µM T3; series mostly up to 106 µM
# Method in brief: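 Read-out is fluorescence polarization (555 nm excitation, 632 nm emission) of a Texas Red SRC2 coactivator peptide; loss of signal reflects blocked binding to human TRb ligand-binding domain in the presence of 1 uM T3.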
# Potency is read from the fitted curve at half-maximal effect.
SMILES,Potency,"activity change, negative = inhibition"
CN1CC=C2C(C#N)=C(N)C(C#N)(C#N)[C@H](c3ccoc3)[C@H]2C1,"inconclusive: 50.1 µM [inhibitor, partial curve]",
O=C(CSc1nnc(COc2ccccc2F)n1-c1ccccc1)NCc1ccco1,"inconclusive: 70.8 µM [inhibitor, partial curve, poor fit]",
Cc1c(C(=O)N(C)c2cccc(C(F)(F)F)c2)sc2nc3n(c(=O)c12)CCCCC3,inactive,
Cc1cc(/C=C\c2ccc3cc(N(C)C)ccc3[n+]2C)c(C)n1-c1ccccc1,"inconclusive: 5.62 µM [activator, full curve]",
COc1cc(/C=C2/SC(=Nc3ccc(O)cc3)NC2=O)ccc1O,inactive,
Cn1c(CCN2CCCCC2)nc2cc(NS(=O)(=O)c3ccc(Cl)cc3)ccc21,"inconclusive: 35.5 µM [inhibitor, partial curve]",
COc1cc(OC)c(-c2c3cc(O)c(=O)cc-3oc3cc(O)c(O)cc23)cc1OC,"inconclusive: 15.8 µM [activator, partial curve]",
CC(=O)Nc1ccc(S(=O)(=O)Nc2ccc(S(=O)(=O)N3CCCC3)cc2)cc1,inactive,
COc1ccc(-c2cc(C(=O)Nc3cc(OC)cc(C(=O)Nc4cccc(C(F)(F)F)c4)c3)[nH]n2)cc1,"inconclusive: 70.8 µM [activator, single point]",
CC(=O)N[C@@H](CS)C(=O)O,inactive,
CCN(CC)c1cccc(OC2=NS(=O)(=O)c3ccccc32)c1,active: 39.8 µM,
O=c1cc(-c2ccccc2)oc2cc(O)c(O)c(O)c12,"inconclusive: 44.7 µM [activator, partial curve]",
O=C(C1COc2ccccc2O1)N1CCc2ccccc2C1 (centres undefined),"inconclusive: 0.316 µM [inhibitor, full curve, poor fit]",
CC(=O)c1cc2c(=O)c3cc(C)ccc3oc2nc1C,inactive,
O=c1[nH][nH]c(C(F)(F)F)c1C=Nc1ccccc1,inactive,
Cc1cccc(NC(=O)c2nc[nH]c2C(=O)N[C@@H](Cc2ccccc2)C(=O)OCc2ccccc2)c1,inactive,
COCCN(Cc1cc2cc3c(cc2nc1Cl)OCO3)C(=O)c1ccc(C)cc1,"inconclusive: 3.55 µM [inhibitor, single point]",
Cc1cc2nc3ccc(=[N+](C)C)cc-3sc2cc1N,active: 7.94 µM,
c1coc(CNc2nc(N3CCCCC3)nc3ccccc23)c1,"inconclusive: 100 µM [inhibitor, partial curve]",
CN(C)c1ccc(/C=C/c2ccc3c4ccccc4ccc3[n+]2-c2ccccc2)cc1,"inconclusive: 8.91 µM [activator, full curve]",
CCCOc1ccc(N2C(=O)CC(N(CCc3ccc(OC)c(OC)c3)C(=S)Nc3ccccc3)C2=O)cc1 (centres undefined),"inconclusive: 22.4 µM [inhibitor, partial curve]",
CCCCN(C(=O)Cn1nnc2ccccc21)C(C(=O)NCCOC)c1ccccc1 (centres undefined),"inconclusive: 0.0794 µM [inhibitor, full curve, poor fit]",
COc1cccc(NC(=O)CSC2=Nc3ccccc3C3=NC(CC(=O)NCCc4ccccc4)C(=O)N23)c1 (centres undefined),inactive,

SMILES,Potency,"activity change, negative = inhibition"
O=C1c2ccccc2C(=O)C12OC2c1ccc(Cl)cc1Cl (centres undefined),"inconclusive: 25.1 µM [activator, full curve]",
COc1cc2ccccc2cc1C(=O)Nc1ccc2oc(-c3ccc(F)cc3)nc2c1,"inconclusive: 35.5 µM [inhibitor, single point]",
C=CCN1C(=NC(=O)CCC(=O)O)SC2CS(=O)(=O)CC21 (centres undefined),inactive,
COc1ccc(NC(=O)C(NS(=O)(=O)c2ccc3c(c2)CCCC(=O)N3)C(C)C)c(OC)c1 (centres undefined),inactive,
O=C(CSc1nnc2c3ccccc3c3ccccc3c2n1)Nc1ccccc1,"inconclusive: 79.4 µM [inhibitor, single point]",
Cc1ccccc1C(=O)NN1C(=O)CSC1=S,"inconclusive: 44.7 µM [activator, partial curve]",
C=CC(=O)OCCOc1ccccc1,"inconclusive: 112 µM [inhibitor, partial curve]",
O=C(O)C1C2C=CC(O2)C1C(=O)Nc1ccc(S(=O)(=O)N2CCc3ccccc32)cc1 (centres undefined),"inconclusive: 31.6 µM [inhibitor, full curve]",
CS(=O)(=O)c1ccc(C(=O)OCC(=O)NC(=O)C2CCCCC2)cc1[N+](=O)[O-],"inconclusive: 14.1 µM [inhibitor, full curve]",
O=C(CSc1nc2nccnc2c(=O)n1CCc1c[nH]c2ccccc12)Nc1ccccc1,"inconclusive: 100 µM [inhibitor, partial curve]",
CCOC(=O)C1=C(C)NC(=O)CC1c1cc2c(cc1[N+](=O)[O-])OCO2 (centres undefined),"inconclusive: 44.7 µM [inhibitor, partial curve]",
Cn1c(=O)c2c(nc(SCC(=O)Nc3ccc(F)cc3)n2Cc2ccccc2F)n(C)c1=O,"inconclusive: 10 µM [inhibitor, partial curve, poor fit]",
Cn1c(N)c(C(=O)COC(=O)CCCc2c[nH]c3ccccc23)c(=O)n(C)c1=O,inactive,
CCOc1ccc(-n2nc(C(=O)N3CCN(CC)CC3)c3ccccc3c2=O)cc1,"inconclusive: 0.126 µM [inhibitor, partial curve, poor fit]",
Brc1ccc(Oc2ccc(Br)cc2)cc1,inactive,
O=S(=O)(c1ccccc1)c1nc(-c2cccs2)oc1NCC1CCCO1 (centres undefined),"inconclusive: 100 µM [inhibitor, partial curve]",
CCOc1ccc(CNC(=O)c2cnc3sc(N4CCOCC4)nn3c2=O)cc1OC,"inconclusive: 35.5 µM [inhibitor, full curve, poor fit]",
Cc1ccc(-n2nc(C)c3c2OC(N)=C(C#N)C3c2ccoc2)cc1 (centres undefined),"inconclusive: 8.91 µM [inhibitor, full curve]",
O=C(/C=C/c1cccc(O)c1)c1cccnc1,inactive,
COc1cccc(C(=O)Nc2ccc(NC(=O)C(C)C)nc2)c1,inactive,
CCOC(=O)c1nc2ccccc2c(=O)[nH]1,inactive,
Cc1ccc(N=C2NC(=O)/C(=C/C=C/c3ccco3)S2)cc1,"inconclusive: 56.2 µM [activator, single point]",
O=C1NN(c2ccc(F)cc2)C(=O)/C1=C\c1cnn(-c2ccccc2)c1,inactive,

SMILES,Potency,"activity change, negative = inhibition"
Cc1ccccc1C1CC(=O)Oc2cc(O)ccc21 (centres undefined),"inconclusive: 112 µM [inhibitor, partial curve]",
COc1ccc(-c2cc(=O)[nH][nH]2)cc1,"inconclusive: 7.08 µM [inhibitor, full curve, poor fit]",
COc1ccc2cc3c(N)nn(C(=O)C4CCC(C(C)(C)C)CC4)c3nc2c1 (centres undefined),inactive,
COC(=O)C(NS(N)(=O)=O)C(C)C (centres undefined),inactive,
CCOC(=O)c1c(C)[nH]c2c1-c1ccccc1C(=O)C2=O,"inconclusive: 3.55 µM [inhibitor, full curve]",
O=C1C(N2CCOCC2)=C(n2nnc3ccccc32)C(=O)c2ccccc21,"inconclusive: 39.8 µM [inhibitor, partial curve]",
COc1ccc(-c2cc(=O)n(CCC#N)[nH]2)cc1,"inconclusive: 3.55 µM [inhibitor, full curve, poor fit]",
CC(C)=C(C#N)c1nc2ccccc2s1,"inconclusive: 7.94 µM [activator, partial curve]",
[O-]/C(=C(\C(=S)Nc1cccc2ccccc12)[n+]1ccccc1)c1ccc2c(c1)OCCO2,"inconclusive: 31.6 µM [inhibitor, full curve]",
O=c1cc(-c2ccccc2O)oc2cc(O)ccc12,inactive,
Cc1onc(C(=O)Nc2c(C)n(C)n(-c3ccccc3)c2=O)c1[N+](=O)[O-],"inconclusive: 44.7 µM [activator, partial curve]",
CC(=O)OC[C@@H]1O[C@H](C/C=N\O[C@@H](C)c2cc(-c3c(C)cc(C)cc3C)no2)C=C[C@@H]1OC(C)=O,,inactive: -3.26% [at 11.2 µM]
CCC12CN3CC(CC)(CN(C1)C3c1c(O)ccc3ccccc13)C2=O (centres undefined),"inconclusive: 70.8 µM [inhibitor, single point]",
N=C1/C(=C\c2coc3ccccc3c2=O)C(=O)N=C2SC(c3ccncc3)=NN12,"inconclusive: 35.5 µM [activator, partial curve]",
O=C(Nc1nc2ccccc2n1CCN1CCOCC1)c1cn(-c2ccccc2)nc1-c1ccccc1,inactive,
O=C(Nc1cccc(S(=O)(=O)N2CCOCC2)c1)[C@@H]1CCCN1S(=O)(=O)c1ccc(Cl)cc1,inactive,
CC(C)c1ccc(S(=O)(=O)/N=C2/C=CC(=O)c3ccccc32)cc1,"inconclusive: 39.8 µM [inhibitor, partial curve]",
CCCCOc1ccc(C(=O)C(CN2CCOCC2)c2ccccc2)cc1 (centres undefined),"inconclusive: 50.1 µM [inhibitor, partial curve]",
COc1ccc(C(=O)C2C3C4COC(O4)C(=O)C3C3C=Cc4ccccc4N32)c(OC)c1 (centres undefined),active: 7.08 µM,
COc1ccc(C2=Nn3c(nnc3-c3cc(OC)cc(OC)c3)SC2)cc1,inactive,
CCOC(=O)c1cc(-c2ccccc2)sc1NC(=O)C(C)C,"inconclusive: 28.2 µM [inhibitor, partial curve, poor fit]",
Cn1c2c(c(=O)n(C)c1=O)CN(CCN1CCNCC1)CN2,"inconclusive: 0.0891 µM [inhibitor, full curve, poor fit]",
O=c1ccc2[n+]([O-])c3ccc(O)cc3oc-2c1,"inconclusive: 0.0891 µM [inhibitor, full curve, poor fit]",

# One compound at a time (already shown):
# O=C(CSc1nc2nccnc2c(=O)n1CCc1c[nH]c2ccccc12)Nc1ccccc1 in the list: Potency: inconclusive: 100 µM [inhibitor, partial curve]
# N=C1/C(=C\c2coc3ccccc3c2=O)C(=O)N=C2SC(c3ccncc3)=NN12 in the list: Potency: inconclusive: 35.5 µM [activator, partial curve]

# Random excerpt: 2 records from the list
SMILES,Potency,"activity change, negative = inhibition"
Cc1ccc(-n2nc(C)c3c2OC(N)=C(C#N)C3c2ccoc2)cc1 (centres undefined),"inconclusive: 8.91 µM [inhibitor, full curve]",
CN1CC=C2C(C#N)=C(N)C(C#N)(C#N)[C@H](c3ccoc3)[C@H]2C1,"inconclusive: 50.1 µM [inhibitor, partial curve]",
